No constants are given. Whether binding was seen depends on the method and setting. In cells and extracts the contact can be indirect. Some entries that bind do so weakly or less than the wild type. Where a sequence is shown, tags or fusion partners need not be part of it. Blank lines part the entries; values can stand above or below the binder they belong to.
Tests used:
[1] = molecular target: T1, RXR-Luc (mouse RXRα fused at its C-terminus to Renilla luciferase Rluc8) (mouse) (UniProt P28700); experiment: FRET or BRET; in vitro BRET shift in Gel shift Buffer (10 mM Tris pH 7.5, 50 mM KCl, 1 mM DTT, 0, 2 or 5 mM MgCl2), lysates diluted in GSB, with dsDNA RE
T1 sequence: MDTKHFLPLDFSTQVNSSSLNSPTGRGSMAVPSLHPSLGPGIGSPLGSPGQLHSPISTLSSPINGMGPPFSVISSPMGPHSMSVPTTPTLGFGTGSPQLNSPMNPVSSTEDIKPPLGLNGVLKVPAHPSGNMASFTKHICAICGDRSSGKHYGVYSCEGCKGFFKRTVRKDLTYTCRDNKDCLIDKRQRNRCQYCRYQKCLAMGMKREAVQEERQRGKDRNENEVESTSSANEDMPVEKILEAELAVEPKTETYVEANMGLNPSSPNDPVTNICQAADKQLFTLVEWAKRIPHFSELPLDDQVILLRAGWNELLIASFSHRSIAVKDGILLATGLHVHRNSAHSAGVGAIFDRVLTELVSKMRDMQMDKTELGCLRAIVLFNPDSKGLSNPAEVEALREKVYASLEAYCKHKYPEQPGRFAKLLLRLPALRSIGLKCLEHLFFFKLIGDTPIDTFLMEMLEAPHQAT

[2] = molecular target: T1, RXR-Luc (mouse RXRα fused at its C-terminus to Renilla luciferase Rluc8) (mouse); experiment: FRET or BRET; in vitro BRET shift: cleared HEK293T lysates in PLB, 80 ku RXR-Luc donor mixed with acceptor lysate, with 100 nM consensus dsDNA RE (DR1 for RXR/PPARG2 and RXR/RXR, DR4 for RXR/THR); with or without polydIdC
[3] = molecular target: T1, RXR-Luc (mouse RXRα fused at its C-terminus to Renilla luciferase Rluc8) (mouse); experiment: FRET or BRET; BRET titration in living HEK293T cells: fixed RXR-Luc donor plasmid, increasing acceptor plasmid; cells in PBS with 0.1% glucose, coelenterazine H 5 uM; control DMSO or ligands (9cisRA + TROG or T3; 5-10 min or overnight); apparent Kd = EYFP/Luc ratio at BRETmax/2

binding [1]: binds | binding [2]: binds | binding [3]: binds
B1: THR-EYFP (mouse THRα fused at its C-terminus to EYFP) (receptor, UniProt P63058-2 1-410)
chain: MEQKPSKVECGSDPEENSARSPDGKRKRKNGQCPLKSSMSGYIPSYLDKDEQCVVCGDKATGYHYRCITCEGCKGFFRRTIQKNLHPTYSCKYDSCCVIDKITRNQCQLCRFKKCIAVGMAMDLVLDDSKRVAKRKLIEQNRERRRKEEMIRSLQQRPEPTPEEWDLIHVATEAHRSTNAQGSHWKQRRKFLPDDIGQSPIVSMPDGDKVDLEAFSEFTKIITPAITRVVDFAKKLPMFSELPCEDQIILLKGCCMEIMSLRAAVRYDPESDTLTLSGEMAVKREQLKNGGLGVVSDAIFELGKSLSAFNLDDTEVALLQAVLLMSTDRSGLLCVDKIEKSQEAYLLAFEHYVNHRKHNIPHFWPKLLMKVTDLRMIGACHASRFLHMKVECPTELFPPLFLEVFEDQEV

binding [1]: binds | binding [2]: binds
B2: RXR-Luc (mouse RXRα fused at its C-terminus to Renilla luciferase Rluc8) (receptor, UniProt P28700 1-467)
chain: T1 sequence

Source: paper PMC3877338
